Experimental data from article PMC7819943, “Rice protein-binding microarrays: a tool to detect cis-acting elements near promoter regions in rice”.
The list shows a part of the results.

Each sequence was assayed against T1, OsSMF1 (Oryza sativa, UniProt Q6ZLB0 1-436) (assay: protein-binding microarray (RPBM); PBS, 2% BSA, 51.3 ng/ul salmon testes DNA, 50 uM zinc acetate, 200 nM TF, 25 C, 1 h; high values mean tight binding). Conditions: protein: recombinant; tags: N-terminal polyhistidine and DsRed monomer fusion (pET32a); chain copies: 2; label: CyDye5-dUTP incorporated in the synthesized complementary strand; 3' TTTTT single-stranded linker to array surface; dsDNA, one strand shown.
T1 sequence: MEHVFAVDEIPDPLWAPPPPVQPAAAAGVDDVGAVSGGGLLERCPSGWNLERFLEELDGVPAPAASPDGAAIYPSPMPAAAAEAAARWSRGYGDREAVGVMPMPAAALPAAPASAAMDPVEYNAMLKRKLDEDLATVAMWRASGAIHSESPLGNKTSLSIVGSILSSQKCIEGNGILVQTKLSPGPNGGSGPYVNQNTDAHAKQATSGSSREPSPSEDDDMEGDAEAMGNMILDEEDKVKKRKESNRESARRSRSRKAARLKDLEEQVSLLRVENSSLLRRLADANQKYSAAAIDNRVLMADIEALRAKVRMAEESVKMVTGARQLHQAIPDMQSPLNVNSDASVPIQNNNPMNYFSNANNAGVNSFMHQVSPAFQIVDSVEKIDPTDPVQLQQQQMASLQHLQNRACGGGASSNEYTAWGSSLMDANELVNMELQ
Summary of the method: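 Per-feature fluorescence intensity (arbitrary units), read on an Axon 4000B scanner, is the binding signal. Transcription factors carrying an N-terminal polyhistidine tag and DsRed fusion were expressed in E. coli BL21-CodonPlus and purified on Ni–NTA. A custom Agilent array, made double-stranded by primer extension with Cy5-dUTP and blocked with 2% BSA, was incubated with 200 nM protein in PBS, 2% BSA, salmon testes DNA and 50 µM zinc acetate at 25 °C for 1 h and then washed.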

Sequence | binding signal
AATCTTATATATATGAACATTATATAGTACTATGAATCTGCGGAGTCACCTAGTGCAG | 5570 fluorescence intensity (a.u.)
CAGCTCAGCCGGGAGAGTCAGATCACCACATCAGTGCGTGCGGAGTCACCTAGTGCAG | 25300 fluorescence intensity (a.u.)
CGGTGGTGACGTTGGAGAAGGAGGCGGCTCGCAGACCGGGCGGAGTCACCTAGTGCAG | 3450 fluorescence intensity (a.u.)
GCGTTCATGTCCACTGATGACTCAGCGATTTCTGAATCACCGGAGTCACCTAGTGCAG | 16700 fluorescence intensity (a.u.)
ATCCGCTCGCGGCGGCCGGCCCCACGACGCCGACGCGCCACGGAGTCACCTAGTGCAG | 4060 fluorescence intensity (a.u.)
CGTTGATATAAAGACCAGTGTCATACCACGCCAAGATTCTCGGAGTCACCTAGTGCAG | 4610 fluorescence intensity (a.u.)
GCCGGCCTCCACGTTCGGGAGGAACGACAAGATGTGGCCCCGGAGTCACCTAGTGCAG | 3800 fluorescence intensity (a.u.)
TTATATTATGGCAATGATGCCTCTTGTACAAAGGGAACCGCGGAGTCACCTAGTGCAG | 19200 fluorescence intensity (a.u.)
CCATGTTGACCGCCACCTCACCTCCTCCCCTTCCCTTCCCCGGAGTCACCTAGTGCAG | 12900 fluorescence intensity (a.u.)
TTTCCTGTTCGGTGTTGATGACAGCTCACTGTACATGATCCGGAGTCACCTAGTGCAG | 5560 fluorescence intensity (a.u.)
TCTCCGACTTGTCGACCGCCTCCGCGTGTGCCGACGGCTTCGGAGTCACCTAGTGCAG | 21200 fluorescence intensity (a.u.)
CGAACTTTTGTCAATTAATGCCAATATTAGCACACGTGGTCGGAGTCACCTAGTGCAG | 5000 fluorescence intensity (a.u.)
CCCGACCTCAACGACGACCATAACAATAGTGTGCATGACGCGGAGTCACCTAGTGCAG | 3620 fluorescence intensity (a.u.)
AAGGAAGTCGTTTTGGACAGCGACACAGTCTCTAAAACACCGGAGTCACCTAGTGCAG | 58900 fluorescence intensity (a.u.)
ACGACGACTCACTAGTCTTCACGCTCCACATCCTCCTCCACGGAGTCACCTAGTGCAG | 3850 fluorescence intensity (a.u.)
GAGAAGAAGGCCACCTCACCACTAAAGGAGGAGGAGGAGGCGGAGTCACCTAGTGCAG | 43500 fluorescence intensity (a.u.)
GCCCACAAGCGCTCGGCTCGAAACGCCACGTCACCACGCTCGGAGTCACCTAGTGCAG | 43800 fluorescence intensity (a.u.)
AATCCAATCCACCGTGGCATTTTCTGTGGCTCAAGCTTTGCGGAGTCACCTAGTGCAG | 10100 fluorescence intensity (a.u.)
GACCTGTGACGACGTTGCTTGCCGCCTTGATGAGTCACTGCGGAGTCACCTAGTGCAG | 9950 fluorescence intensity (a.u.)
TTCCTTTAATATGCACCCACCAGCTGTCAAGTCAGCGCCTCGGAGTCACCTAGTGCAG | 4190 fluorescence intensity (a.u.)
GCCCAAGTTGAGGCCCAACTTGTCAGCCATCACTAAAAGCCGGAGTCACCTAGTGCAG | 3290 fluorescence intensity (a.u.)

Quoted from the listing.
Under binding signal, TTCCTTTAATATGCACCCACCAGCTGTCAAGTCAGCGCCTCGGAGTCACCTAGTGCAG has the entry 4190 fluorescence intensity (a.u.)
Under binding signal, GCCCAAGTTGAGGCCCAACTTGTCAGCCATCACTAAAAGCCGGAGTCACCTAGTGCAG has the entry 3290 fluorescence intensity (a.u.)

(next part)

Sequence | binding signal
GCCAAACACATTGGCGCTGACATTGGCCGTGTCAGCGCCACGGAGTCACCTAGTGCAG | 9140 fluorescence intensity (a.u.)
CAGCGGTCCTTCCCGCTGACGGAGGAGGAGTACCTGCTCCCGGAGTCACCTAGTGCAG | 3700 fluorescence intensity (a.u.)
GGATGAAATTAGCCCATCAGCAATTACGTGTAGGCCGTAGCGGAGTCACCTAGTGCAG | 6580 fluorescence intensity (a.u.)
ACAGATACGGACACTTCTTTGTTGAACCGTCCGGGTGACGCGGAGTCACCTAGTGCAG | 22600 fluorescence intensity (a.u.)
CTAGGCTTTCCTCTGTTGCTTGGTTGCATTGCATGCTTCTCGGAGTCACCTAGTGCAG | 38900 fluorescence intensity (a.u.)
TTATTATGAAAATATATTTAATTATTGATTTGATGAAACTCGGAGTCACCTAGTGCAG | 21300 fluorescence intensity (a.u.)
ATATATAATCAACATGATGACGGCAATTGCAGCCCGAAACCGGAGTCACCTAGTGCAG | 3500 fluorescence intensity (a.u.)
GAATATATCCACGTAATTTGTTCACTATCACACACAATTGCGGAGTCACCTAGTGCAG | 9460 fluorescence intensity (a.u.)
TACATATGATGAGGACAAATTCAGGGGTAGCGTCATTGCCCGGAGTCACCTAGTGCAG | 3450 fluorescence intensity (a.u.)
CGCCAACTCAACGCTGAAGCCGCTGCCTCACCATCTCGTCCGGAGTCACCTAGTGCAG | 3250 fluorescence intensity (a.u.)
TCCTCTTAACGAATAGGAGACCCCACGTGGCACGTCGAGCCGGAGTCACCTAGTGCAG | 9700 fluorescence intensity (a.u.)
ATAAAGAAGGGAGGCAGCGGGCGAGCTGTAAAGGAGTACACGGAGTCACCTAGTGCAG | 32300 fluorescence intensity (a.u.)
TCCTCAGCCTCGACGCCGCCTTCCTCTCCTCCTGCGCCGGCGGAGTCACCTAGTGCAG | 3700 fluorescence intensity (a.u.)
CCCAAAAGGACGCGTAAGCAACGCTGCAGACGCAGCAATCCGGAGTCACCTAGTGCAG | 3670 fluorescence intensity (a.u.)
TTAGACACGTAGGTGCCATGTCAGCCAAAACCACCGAGGGCGGAGTCACCTAGTGCAG | 17100 fluorescence intensity (a.u.)
CAAAATAGAGTAAAACAATCGCGTGACATCATCTTTATTTCGGAGTCACCTAGTGCAG | 6960 fluorescence intensity (a.u.)
ATAAGTCCTACCTATGAGTTCCTTTCCATACTTGTCCAAGCGGAGTCACCTAGTGCAG | 21200 fluorescence intensity (a.u.)
AATCATGACACGTAAATATAATGGAGAAGTCTTGTGAACCCGGAGTCACCTAGTGCAG | 3680 fluorescence intensity (a.u.)
TCTAAACTTGCAGATCATACGTTTAGATCATCCAACTTGTCGGAGTCACCTAGTGCAG | 28000 fluorescence intensity (a.u.)
TGCCCGGCTCGGCTACCCCGTCGCCACCGCCGTTCGTTTCCGGAGTCACCTAGTGCAG | 3190 fluorescence intensity (a.u.)
ACGACTCTTGGTGCCACGTGTCGGGCTCATACGATGCCAGCGGAGTCACCTAGTGCAG | 27600 fluorescence intensity (a.u.)
